{"source": "paper PMC8245858", "about": "(Acta Pharmaceutica Sinica. B, 2021)", "test": "Caco-2 permeability assay", "format": "in vitro ADME", "conditions": "human; for Papp: Mean ± RSD, n = 2", "data": [{"smiles": "CC(C)NCC(O)COc1ccc(CC(N)=O)cc1", "note": "(stereo not drawn) [Atenolol]", "values": [{"measurement": "efflux ratio", "setting": "Caco-2", "result": 9.8}, {"measurement": "Papp", "setting": "Caco-2, Papp (A‒B), direction A‒B", "result": "0.23 ± 0.02", "unit": "×10⁻⁶ cm/s"}, {"measurement": "Papp", "setting": "Caco-2, Papp (B‒A), direction B‒A", "result": "2.2 ± 0.1", "unit": "×10⁻⁶ cm/s"}]}]}
